Source: US12291607B2, “Polymer material and method for producing same” (Osaka University, priority 2019, dated 2025)
Some results were stated once for a whole list of compounds, not compound by compound.

Experiment: Solubility of third polymerizable monomers in water
Conditions: for 100 g of water (20° C.)

C=CC(=O)OCCCCO [Example 4HBA, 4-hydroxybutyl acrylate]
solubility in water: ≥ 50 g
